PubChem BioAssay AID743454, Peter MacCallum Cancer Centre – 2014
Purpose: 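Knock-downs lowering viability or raising caspase 3/7 activity in vorinostat-treated resistant cells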 (primary screen). System: human HCT116-VR colon cancer cells, selected for vorinostat resistance. Reagents: siRNA pool against human genes, 40 nM siRNA pool. Duration: vorinostat for 24 h, read-out about 72 h after transfection. Treatment: vorinostat at 2.5 µM final. Read-out: 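Cell viability by CellTiter-Fluor and caspase 3/7 activity by luminescence, each scaled to mock wells per plate, duplicates averaged, then robust z-scored over all plates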. Reading the numbers: viability robust z-score: higher = more viable cells than screen typical; caspase robust z-score: higher = more caspase 3/7 activity than screen typical. Hit rule: 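a knock-down is a hit when classed RV1 or RV2 for lowered viability, or CA1 or CA2 for caspase activation; those lethal without drug were dropped; hits were retested singly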.
The deposit covers about 18,000 reagents; below is a random part of them. Over the whole deposit, 450 (2.5%) got an active call. 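Single biological run; no consistent viability z cut-off exists, so the class columns, not z-scores, define the calls.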

What is on record for TXLNG (taxilin gamma) [SID134324456]?
viability hit class: no change; caspase hit class: no change; viability robust z-score: -0.44; caspase robust z-score: -0.02; activity call: inactive

With BTN3A1 (butyrophilin subfamily 3 member A1) [SID135623680], what was measured?
viability hit class: RV2 (reduced viability); caspase hit class: no change; viability robust z-score: -3.53; caspase robust z-score: 2.16; activity call: active

For DCST2 (DC-STAMP domain containing 2) [SID135623053], what does the deposit list?
viability hit class: no change; caspase hit class: no change; viability robust z-score: -0.12; caspase robust z-score: 0.07; activity call: inactive

For PALB2 (partner and localizer of BRCA2) [SID152152901], how do the results read?
viability hit class: no change; caspase hit class: no change; viability robust z-score: -1.49; caspase robust z-score: 2.48; activity call: inactive

How did the screen score ANXA8 (annexin A8) [SID135625646]?
viability hit class: no change; caspase hit class: no change; viability robust z-score: 1.75; caspase robust z-score: -0.32; activity call: inactive

For NDUFB5 (NADH:ubiquinone oxidoreductase subunit B5) [SID135623700], how do the results read?
viability hit class: no change; caspase hit class: no change; viability robust z-score: -0.12; caspase robust z-score: -1.04; activity call: inactive

What is on record for BACH2 (BACH transcriptional regulator 2) [SID134314501]?
viability hit class: no change; caspase hit class: no change; viability robust z-score: -1.58; caspase robust z-score: 0.57; activity call: inactive

What did the screen give for DNAJC2 (DnaJ heat shock protein family (Hsp40) member C2) [SID135624509]?
viability hit class: no change; caspase hit class: no change; viability robust z-score: -0.42; caspase robust z-score: -0.3; activity call: inactive

With MAP7 (microtubule associated protein 7) [SID134315890], what does the deposit list?
viability hit class: no change; caspase hit class: no change; viability robust z-score: 0.62; caspase robust z-score: -0.99; activity call: inactive

For MC5R (melanocortin 5 receptor) [SID134311100], what was measured?
viability hit class: no change; caspase hit class: no change; viability robust z-score: 0.41; caspase robust z-score: -0.63; activity call: inactive

With CLCN2 (chloride voltage-gated channel 2) [SID152147109], what was measured?
viability hit class: no change; caspase hit class: no change; viability robust z-score: 0.4; caspase robust z-score: 0.44; activity call: inactive

With RAD52 (RAD52 DNA repair protein) [SID152148995], how do the results read?
viability hit class: no change; caspase hit class: no change; viability robust z-score: 0.66; caspase robust z-score: -0.52; activity call: inactive

With MOB3B (MOB kinase activator 3B) [SID134322041], how do the results read?
viability hit class: no change; caspase hit class: no change; viability robust z-score: 0.19; caspase robust z-score: -0.69; activity call: inactive

For RAD51C (RAD51 paralog C) [SID135621955], what does the deposit list?
viability hit class: no change; caspase hit class: no change; viability robust z-score: -1.13; caspase robust z-score: -0.33; activity call: inactive

What did the screen give for LOXL3 (lysyl oxidase like 3) [SID134312953]?
viability hit class: no change; caspase hit class: no change; viability robust z-score: -0.36; caspase robust z-score: 0.42; activity call: inactive

For PAFAH1B1 [SID152148934], what does the deposit list?
viability hit class: no change; caspase hit class: no change; viability robust z-score: -0.04; caspase robust z-score: 1.64; activity call: inactive

How did the screen score ADAM18 (ADAM metallopeptidase domain 18) [SID134315193]?
viability hit class: no change; caspase hit class: no change; viability robust z-score: -0.5; caspase robust z-score: 0.86; activity call: inactive

For DCUN1D2 (defective in cullin neddylation 1 domain containing 2) [SID152153960], what does the deposit list?
viability hit class: no change; caspase hit class: CA1 (caspase activation); viability robust z-score: -0.36; caspase robust z-score: 8.32; activity call: active

What is on record for PCDHGB4 (protocadherin gamma subfamily B, 4) [SID134315840]?
viability hit class: no change; caspase hit class: no change; viability robust z-score: 0.3; caspase robust z-score: -0.99; activity call: inactive

What did the screen give for C10orf67 (chromosome 10 open reading frame 67) [SID134319752]?
viability hit class: no change; caspase hit class: no change; viability robust z-score: 0.5; caspase robust z-score: -0.04; activity call: inactive

With SUGT1 (SGT1 assembly cochaperone of MIS12 kinetochore complex) [SID134317127], how do the results read?
viability hit class: no change; caspase hit class: no change; viability robust z-score: -0.48; caspase robust z-score: 1.52; activity call: inactive

Looked up above:
Value for RAD51C (RAD51 paralog C) [SID135621955] under “viability hit class”: no change
MAP7 (microtubule associated protein 7) [SID134315890], activity call: inactive
